From article doi:10.1101/2024.11.07.622459

Sequences of proteins named here, by UniProt entry; tags and fusion partners are left off.
UniProt Q99700: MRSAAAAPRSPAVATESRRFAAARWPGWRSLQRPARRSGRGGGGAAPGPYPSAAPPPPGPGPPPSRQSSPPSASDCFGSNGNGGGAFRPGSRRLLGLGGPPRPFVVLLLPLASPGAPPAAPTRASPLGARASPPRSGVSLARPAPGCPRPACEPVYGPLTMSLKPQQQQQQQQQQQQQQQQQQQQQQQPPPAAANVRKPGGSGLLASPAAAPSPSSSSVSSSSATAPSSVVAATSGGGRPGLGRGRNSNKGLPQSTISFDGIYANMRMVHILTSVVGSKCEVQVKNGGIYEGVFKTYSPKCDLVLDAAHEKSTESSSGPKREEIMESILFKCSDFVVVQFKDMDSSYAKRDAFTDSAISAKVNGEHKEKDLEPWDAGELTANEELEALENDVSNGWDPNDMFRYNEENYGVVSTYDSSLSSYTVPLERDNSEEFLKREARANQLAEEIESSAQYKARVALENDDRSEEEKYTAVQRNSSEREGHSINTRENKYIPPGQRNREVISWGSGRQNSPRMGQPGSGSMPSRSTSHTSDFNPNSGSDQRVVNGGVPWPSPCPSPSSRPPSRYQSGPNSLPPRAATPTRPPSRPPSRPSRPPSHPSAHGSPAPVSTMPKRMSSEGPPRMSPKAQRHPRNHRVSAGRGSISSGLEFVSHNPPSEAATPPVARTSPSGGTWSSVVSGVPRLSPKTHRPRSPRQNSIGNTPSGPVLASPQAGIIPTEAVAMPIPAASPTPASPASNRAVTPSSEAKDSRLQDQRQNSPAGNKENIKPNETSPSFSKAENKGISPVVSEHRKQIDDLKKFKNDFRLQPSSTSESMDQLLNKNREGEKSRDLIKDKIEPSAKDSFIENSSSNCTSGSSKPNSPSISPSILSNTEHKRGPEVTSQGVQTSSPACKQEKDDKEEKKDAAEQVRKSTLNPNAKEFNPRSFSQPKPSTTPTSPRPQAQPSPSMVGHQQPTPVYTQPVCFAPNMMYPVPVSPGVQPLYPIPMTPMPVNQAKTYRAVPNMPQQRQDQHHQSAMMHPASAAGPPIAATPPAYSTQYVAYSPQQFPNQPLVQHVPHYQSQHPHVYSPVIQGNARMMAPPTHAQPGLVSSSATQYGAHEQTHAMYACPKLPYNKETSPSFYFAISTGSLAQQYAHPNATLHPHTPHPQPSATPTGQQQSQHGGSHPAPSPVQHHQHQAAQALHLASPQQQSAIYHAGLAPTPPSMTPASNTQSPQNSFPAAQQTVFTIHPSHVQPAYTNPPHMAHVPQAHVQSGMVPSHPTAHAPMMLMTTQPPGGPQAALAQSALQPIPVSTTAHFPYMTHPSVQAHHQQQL

B1: Tia1 (protein, UniProt P31483 1-386)
chain: MEDEMPKTLYVGNLSRDVTEALILQLFSQIGPCKNCKMIMDTAGNDPYCFVEFHEHRHAAAALAAMNGRKIMGKEVKVNWATTPSSQKKDTSSSTVVSTQRSQDHFHVFVGDLSPEITTEDIKAAFAPFGRISDARVVKDMATGKSKGYGFVSFFNKWDAENAIQQMGGQWLGGRQIRTNWATRKPPAPKSTYESNTKQLSYDEVVNQSSPSNCTVYCGGVTSGLTEQLMRQTFSPFGQIMEIRVFPDKGYSFVRFNSHESAAHAIVSVNGTTIEGHVVKCYWGKETLDMINPVQQQNQIGYPQPYGQWGQWYGNAQQIGQYMPNGWQVPAYGMYGQAWNQQGFNQTQSSAPWMGPNYGVQPPQGQNGSMLPNQPSGYRVAGYETQ
B2: G3BP2 (protein, UniProt Q9UN86 1-482)
chain: MVMEKPSPLLVGREFVRQYYTLLNKAPEYLHRFYGRNSSYVHGGVDASGKPQEAVYGQNDIHHKVLSLNFSECHTKIRHVDAHATLSDGVVVQVMGLLSNSGQPERKFMQTFVLAPEGSVPNKFYVHNDMFRYEDEVFGDSEPELDEESEDEVEEEQEERQPSPEPVQENANSGYYEAHPVTNGIEEPLEESSHEPEPEPESETKTEELKPQVEEKNLEELEEKSTTPPPAEPVSLPQEPPKAFSWASVTSKNLPPSGTVSSSGIPPHVKAPVSQPRVEAKPEVQSQPPRVREQRPRERPGFPPRGPRPGRGDMEQNDSDNRRIIRYPDSHQLFVGNLPHDIDENELKEFFMSFGNVVELRINTKGVGGKLPNFGFVVFDDSEPVQRILIAKPIMFRGEVRLNVEEKKTRAARERETRGGGDDRRDIRRNDRGPGGPRGIVGGGMMRDRDGRGPPPRGGMAQKLGSGRGTGQMEGRFTGQRR

Molecular target: ATXN2 (ATAXIN2, Spinocerebellar ataxia 2) (human (endogenous in K562)) (UniProt Q99700)
Experiment: affinity purification with mass spectrometry

Binder	binding
B1	binds
B2	binds

No constants are given. Whether binding was seen depends on the method and setting. Binding seen in cells or lysates may run through a third protein. Here binding means that the protein was enriched with, or labelled near, the bait; the list need not be complete.
